## Percent effect of library compounds

Chains of the proteins cited; added tags and fusions are not shown.
UniProt I6X8D2, whole entry: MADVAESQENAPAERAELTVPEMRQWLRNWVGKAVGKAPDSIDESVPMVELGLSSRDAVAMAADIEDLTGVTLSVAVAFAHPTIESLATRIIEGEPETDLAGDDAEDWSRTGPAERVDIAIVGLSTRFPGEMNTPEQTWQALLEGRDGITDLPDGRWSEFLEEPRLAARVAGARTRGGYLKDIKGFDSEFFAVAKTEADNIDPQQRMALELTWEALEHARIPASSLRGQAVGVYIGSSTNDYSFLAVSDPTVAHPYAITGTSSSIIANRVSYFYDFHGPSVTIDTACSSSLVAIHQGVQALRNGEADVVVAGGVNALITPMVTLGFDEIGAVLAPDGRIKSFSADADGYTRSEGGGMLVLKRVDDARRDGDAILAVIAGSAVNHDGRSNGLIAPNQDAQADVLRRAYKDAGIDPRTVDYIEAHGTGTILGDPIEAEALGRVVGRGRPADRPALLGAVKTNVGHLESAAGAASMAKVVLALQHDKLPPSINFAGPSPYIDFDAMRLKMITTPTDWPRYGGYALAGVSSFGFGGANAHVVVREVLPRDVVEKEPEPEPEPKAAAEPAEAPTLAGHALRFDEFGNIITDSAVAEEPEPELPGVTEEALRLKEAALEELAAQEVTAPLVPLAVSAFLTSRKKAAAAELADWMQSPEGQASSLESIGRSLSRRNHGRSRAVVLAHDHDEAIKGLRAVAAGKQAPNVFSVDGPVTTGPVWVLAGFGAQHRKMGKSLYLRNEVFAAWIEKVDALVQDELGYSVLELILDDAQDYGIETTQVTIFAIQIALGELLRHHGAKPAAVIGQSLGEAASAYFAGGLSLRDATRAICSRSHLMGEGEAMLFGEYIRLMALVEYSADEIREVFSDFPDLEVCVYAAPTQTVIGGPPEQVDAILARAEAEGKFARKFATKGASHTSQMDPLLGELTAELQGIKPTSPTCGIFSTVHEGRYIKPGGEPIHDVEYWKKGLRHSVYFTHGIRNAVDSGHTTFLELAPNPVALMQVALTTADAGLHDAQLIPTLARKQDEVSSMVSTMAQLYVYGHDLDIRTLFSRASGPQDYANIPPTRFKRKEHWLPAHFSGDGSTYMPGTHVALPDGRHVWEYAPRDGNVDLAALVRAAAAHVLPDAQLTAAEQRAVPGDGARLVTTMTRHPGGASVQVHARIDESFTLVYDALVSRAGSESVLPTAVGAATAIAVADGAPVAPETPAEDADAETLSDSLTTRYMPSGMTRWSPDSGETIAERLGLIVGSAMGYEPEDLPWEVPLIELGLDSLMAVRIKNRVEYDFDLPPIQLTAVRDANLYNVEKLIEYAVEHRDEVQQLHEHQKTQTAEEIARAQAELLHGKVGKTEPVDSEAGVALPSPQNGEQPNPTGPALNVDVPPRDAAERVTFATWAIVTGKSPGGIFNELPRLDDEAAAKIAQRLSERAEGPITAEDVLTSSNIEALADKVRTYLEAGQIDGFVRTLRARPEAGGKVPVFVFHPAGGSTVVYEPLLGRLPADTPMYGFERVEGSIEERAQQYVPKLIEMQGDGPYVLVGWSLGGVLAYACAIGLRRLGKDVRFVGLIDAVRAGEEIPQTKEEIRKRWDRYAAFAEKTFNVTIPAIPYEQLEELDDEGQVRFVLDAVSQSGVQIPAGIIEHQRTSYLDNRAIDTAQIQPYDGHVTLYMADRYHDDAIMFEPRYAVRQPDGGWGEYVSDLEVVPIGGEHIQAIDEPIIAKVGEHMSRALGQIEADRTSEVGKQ
UniProt P9WPC5, whole entry: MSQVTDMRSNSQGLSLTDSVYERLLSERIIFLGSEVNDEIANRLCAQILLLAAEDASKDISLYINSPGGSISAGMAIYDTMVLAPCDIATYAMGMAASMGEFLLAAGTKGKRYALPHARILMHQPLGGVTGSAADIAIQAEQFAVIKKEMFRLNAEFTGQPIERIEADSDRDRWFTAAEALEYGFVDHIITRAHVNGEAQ
UniProt P9WPC3, whole entry partner: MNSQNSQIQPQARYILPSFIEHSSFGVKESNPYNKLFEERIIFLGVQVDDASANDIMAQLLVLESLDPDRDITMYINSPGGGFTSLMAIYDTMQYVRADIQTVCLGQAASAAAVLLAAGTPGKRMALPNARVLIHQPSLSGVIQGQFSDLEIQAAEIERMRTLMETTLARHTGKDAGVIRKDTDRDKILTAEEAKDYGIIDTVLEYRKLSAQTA

Source: ChEMBL document CHEMBL3988442, “University of Dundee, Small-Polar-MMV Screening Library” (2021).

Results are given as percent effect.
How 0% and 100% were set is not recorded. Most values in the screen are low, and negative values occur.
This is an unselected part of the compounds tested.
A dash means the value is not listed here; it may have been measured.

Leishmania in macrophages: 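Cell assay of Leishmania donovani living inside macrophages; the read-out is not stated. Compounds at 30 µM. Higher reads as stronger inhibition (inferred: compounds with an IC50 in retests scored well above the rest). Of about 69,000 compounds tested this way, about 1,000 (1.5%) reached 50% or more in at least one test.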
Pks13 thioesterase: 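Enzyme assay of the thioesterase domain of polyketide synthase 13; the read-out is not stated. Target: Polyketide synthase Pks13, Mycobacterium tuberculosis (UniProt I6X8D2). Concentration: 30 µM. The record gives no direction; the compounds picked for IC50 retests had high values, so higher reads as stronger inhibition. Size under these conditions: about 67,000 compounds, about 300 of them at 50% or above in at least one test.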
ClpP1P2: 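Protease assay of ClpP1P2, read by the AMC dye that it sets free. Target: ClpP1P2, Mycobacterium tuberculosis (UniProt P9WPC5 and UniProt P9WPC3). Concentration: 50 µM. Higher reads as stronger inhibition, judged from the few compounds that gave an IC50. Most other retested compounds had strongly negative values. About 69,000 compounds were tested under these conditions; 0.015% (about 10) showed 50% or more at least once.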
T. brucei: 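Whole-parasite assay of Trypanosoma brucei over 72 hours; the read-out is not stated. Concentration: 30 µM. Direction is inferred from retests: higher values go with stronger inhibition. Values scatter widely below zero; nearly all retest evidence comes from the higher of the two concentrations used. Of about 64,000 compounds tested this way, about 940 (1.5%) reached 50% or more in at least one test.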

compound: CCCN1CCCC2(CCN(S(=O)(=O)N3CCC(OC)CC3)C2)C1=O (stereo not given)
Leishmania in macrophages: 3.08%
Pks13 thioesterase: -4.572%
ClpP1P2: -21.36%
T. brucei: -4.064%

compound: Cn1cccc1C(=O)N1CCCC2(CCCN2Cc2cccnc2)C1 (stereo not given)
Leishmania in macrophages: 0.808%
Pks13 thioesterase: -7.708%
ClpP1P2: -1.244%
T. brucei: -29.34%

compound: CC1CN(C(=O)c2cscn2)c2ccccc2S1 (stereo not given)
Leishmania in macrophages: -6.515%
Pks13 thioesterase: -16.81%
ClpP1P2: -1.582%
T. brucei: -9.898%

compound: COc1ccc(OC)c(CN2CCc3nc4ccsc4c(=O)n3CC2)c1
Pks13 thioesterase: 5.923%
ClpP1P2: -1.672%

compound: Cc1nnsc1CN1C[C@H]2CC[C@@H]1CN(Cc1ccc(F)cc1)C2
Pks13 thioesterase: -7.546%
ClpP1P2: 9.683%

compound: COc1cccc2c1N(Cc1nc3c(cnn3C)c(=O)[nH]1)CCC2
Leishmania in macrophages: -24.47%
Pks13 thioesterase: -9.612%
ClpP1P2: 9.292%
T. brucei: -114.5%

compound: CCOCCCC(=O)Nc1cccnc1-n1ccnc1C
Leishmania in macrophages: 10.09%
Pks13 thioesterase: -13.39%
ClpP1P2: 0.6576%
T. brucei: -20.66%

compound: CC(C)(N)c1nc(C(F)F)cc(=O)[nH]1
Pks13 thioesterase: -8.159%
ClpP1P2: -0.3438%

compound: CCOCCCn1c(NC(=O)c2ccnc(C)n2)nc2ccccc21
Leishmania in macrophages: -4.472%
Pks13 thioesterase: 0.2811%
ClpP1P2: -5.742%

compound: Cc1nn(C)c(C)c1CN(C)C(=O)C1COc2ccccc2C1 (stereo not given)
Leishmania in macrophages: 0.246%
Pks13 thioesterase: -36.62%
ClpP1P2: -23.69%
T. brucei: -6.18%

compound: O=C(C1CC1)N1CCC(c2nc(-c3ccccc3)n[nH]2)CC1
Leishmania in macrophages: 33.76%
Pks13 thioesterase: -23.69%
ClpP1P2: -1.892%
T. brucei: -5.132%

compound: NC(=O)Nc1cccc(F)c1C(=O)NC1CCCC1
Leishmania in macrophages: 3.755%
Pks13 thioesterase: -12.17%
ClpP1P2: -10.89%
T. brucei: -25.02%

compound: O=C(O)C(F)(F)F.O=C(O)C(F)(F)F.[H][C@@]12CCCO[C@]1([H])[C@@H](OCc1csc(C)n1)CN2Cc1ccccn1
Leishmania in macrophages: 28.93%
T. brucei: -19.95%

compound: CC(C)n1cc(C(=O)NC2CCS(=O)(=O)C2)c2ccccc2c1=O (stereo not given)
Leishmania in macrophages: -3.557%
Pks13 thioesterase: -7.104%
ClpP1P2: 10.96%
T. brucei: -10.39%

compound: N#Cc1ccccc1CN1CCCC(c2nccn2CC2CCC2)C1 (stereo not given)
Leishmania in macrophages: -20.18%
Pks13 thioesterase: 12.9%
ClpP1P2: -16.35%
T. brucei: 0.9742%

compound: Cc1cnc(C(=O)N2CCCC(Cn3cc(CC(C)C)nn3)C2)cn1 (stereo not given)
Leishmania in macrophages: -1.555%
Pks13 thioesterase: -20.04%
ClpP1P2: -7.443%
T. brucei: -48.28%

For reference, 2 entries once more:

compound	Leishmania in macrophages	Pks13 thioesterase	ClpP1P2	T. brucei
COc1ccc(OC)c(CN2CCc3nc4ccsc4c(=O)n3CC2)c1	-	5.923%	-1.672%	-
CCOCCCC(=O)Nc1cccnc1-n1ccnc1C	10.09%	-13.39%	0.6576%	-20.66%